## Cleaved PARP after 72 h of treatment

From a melanoma drug combination screen (doi:10.1371/journal.pone.0140310); values rounded.

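The test systems are human melanoma cell lines, treated with a pair of drugs for 72 h and then stained and imaged. Values are the share of nuclei positive for cleaved PARP as a percentage of the same share in the DMSO control: 100 is the control level, higher means more apoptosis. Every drug was used at one fixed concentration, the higher of two screened. These are primary screening values without error estimates. The marker varies much from line to line, for technical or biological reasons.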
Only some of the drugs and lines screened are listed, without regard to their results.
An entry leaves out what has no value listed here.

Compounds and concentrations:
cediranib (2000 nM): COc1cc2c(Oc3ccc4[nH]c(C)cc4c3F)ncnc2cc1OCCCN1CCCC1
TCS401 (8330 nM): O=C(O)C(=O)Nc1sc2c(c1C(=O)O)CCNC2
stibogluconate (10000 nM): O=C(O)[C@@H]1[O][Sb](=[O])([O][Sb]2(=[O])[O][C@H]([C@H](O)CO)[C@H](O)[C@H](C(=O)O)[O]2)[O][C@H]([C@H](O)CO)[C@@H]1O (some centres not stated)
NVP-BEZ235 (20 nM): Cn1c(=O)n(-c2ccc(C(C)(C)C#N)cc2)c2c3cc(-c4cnc5ccccc5c4)ccc3ncc21
bortezomib (5 nM): CC(C)C[C@H](NC(=O)[C@H](Cc1ccccc1)NC(=O)c1cnccn1)B(O)O
OSI-906 (2000 nM): C[C@]1(O)C[C@@H](c2nc(-c3ccc4ccc(-c5ccccc5)nc4c3)c3c(N)nccn32)C1
tipifarnib (50 nM): Cn1cncc1[C@@](N)(c1ccc(Cl)cc1)c1ccc2c(c1)c(-c1cccc(Cl)c1)cc(=O)n2C
U73122 (2000 nM): COc1ccc2c(c1)CCC1C2CCC2(C)C(NCCCCCCN3C(=O)C=CC3=O)CCC12 (configuration not stated)
FK866 (50 nM): O=C(/C=C/c1cccnc1)NCCCCC1CCN(C(=O)c2ccccc2)CC1

- FK866 + cediranib : SK-MEL-5: 46.0; WM1716: 139; WM3619: 99.4; A101D: 108
- FK866 + stibogluconate : SK-MEL-5: 378; WM1716: 81.2; WM3619: 96.0; A101D: 84.4
- OSI-906 + U73122 : SK-MEL-5: 97.7; 501mel: 153; WM1716: 140; WM3619: 107; A101D: 147
- cediranib + OSI-906 : SK-MEL-5: 103; WM1716: 16.8; WM3619: 81.6; A101D: 201
- bortezomib + TCS401 : SK-MEL-5: 290; 501mel: 266; WM1716: 9830; WM3619: 2770; A101D: 997
- stibogluconate + OSI-906 : SK-MEL-5: 97.7; WM1716: 100; WM3619: 68.4; A101D: 141
- tipifarnib + FK866 : SK-MEL-5: 204; WM1716: 71.0; WM3619: 127; A101D: 111
- U73122 + cediranib : SK-MEL-5: 59.9; 501mel: 104; WM1716: 67.4; WM3619: 83.7; A101D: 216
- TCS401 + U73122 : SK-MEL-5: 51.0; 501mel: 47.8; WM1716: 229; WM3619: 157; A101D: 139
- FK866 + TCS401 : SK-MEL-5: 74.9; 501mel: 119; WM1716: 53.8; WM3619: 92.3; A101D: 68.0
- bortezomib + tipifarnib : SK-MEL-5: 1030; WM1716: 11300; WM3619: 1910; A101D: 491
- stibogluconate + bortezomib : SK-MEL-5: 1010; WM1716: 14100; WM3619: 3120; A101D: 341
- FK866 + NVP-BEZ235 : SK-MEL-5: 388; WM1716: 112; WM3619: 168; A101D: 68.7
- U73122 + stibogluconate : SK-MEL-5: 63.4; 501mel: 71.6; WM1716: 174; WM3619: 85.7; A101D: 43.8
- OSI-906 + bortezomib : SK-MEL-5: 3220; WM1716: 13800; WM3619: 4320; A101D: 279
- U73122 + NVP-BEZ235 : SK-MEL-5: 56.1; 501mel: 76.6; WM1716: 69.3; WM3619: 182; A101D: 207
- U73122 + FK866 : SK-MEL-5: 164; 501mel: 80.2; WM1716: 124; WM3619: 121; A101D: 127
- tipifarnib + stibogluconate : SK-MEL-5: 103; WM1716: 104; WM3619: 169; A101D: 89.2
- tipifarnib + OSI-906 : SK-MEL-5: 302; WM1716: 46.8; WM3619: 112; A101D: 333
- TCS401 + NVP-BEZ235 : SK-MEL-5: 53.6; 501mel: 122; WM1716: 53.1; WM3619: 166; A101D: 177
- FK866 + OSI-906 : SK-MEL-5: 274; WM1716: 15.3; WM3619: 100; A101D: 59.9
- bortezomib + NVP-BEZ235 : SK-MEL-5: 923; WM1716: 5050; WM3619: 855; A101D: 809
- NVP-BEZ235 + cediranib : SK-MEL-5: 213; WM1716: 81.7; WM3619: 134; A101D: 235
- tipifarnib + TCS401 : SK-MEL-5: 238; 501mel: 385; WM1716: 40.8; WM3619: 108; A101D: 102
- stibogluconate + TCS401 : SK-MEL-5: 72.7; 501mel: 182; WM1716: 164; WM3619: 77.7; A101D: 37.5
- bortezomib + cediranib : SK-MEL-5: 1160; WM1716: 10600; WM3619: 7830; A101D: 258
- FK866 + bortezomib : SK-MEL-5: 1580; WM1716: 6010; WM3619: 3380; A101D: 437
- tipifarnib + U73122 : SK-MEL-5: 256; 501mel: 51.2; WM1716: 355; WM3619: 162; A101D: 319
- OSI-906 + TCS401 : SK-MEL-5: 193; 501mel: 203; WM1716: 57.0; WM3619: 117; A101D: 89.1
- OSI-906 + NVP-BEZ235 : SK-MEL-5: 427; WM1716: 40.5; WM3619: 176; A101D: 102
- TCS401 + cediranib : SK-MEL-5: 121; 501mel: 58.9; WM1716: 17.8; WM3619: 112; A101D: 41.7
- tipifarnib + NVP-BEZ235 : SK-MEL-5: 86.3; WM1716: 171; WM3619: 147; A101D: 149
- tipifarnib + cediranib : SK-MEL-5: 134; WM1716: 115; WM3619: 76.6; A101D: 56.2